Here are results for one molecule from publication PMC11705626.

No constants are given. Whether binding was seen depends on the method and setting. In cells and extracts the contact can be indirect. Some entries that bind do so weakly or less than the wild type.

This assay has as its target T1, Caveolin-1 (mouse (endogenous in b. End3)) (UniProt P49817).
T1 sequence: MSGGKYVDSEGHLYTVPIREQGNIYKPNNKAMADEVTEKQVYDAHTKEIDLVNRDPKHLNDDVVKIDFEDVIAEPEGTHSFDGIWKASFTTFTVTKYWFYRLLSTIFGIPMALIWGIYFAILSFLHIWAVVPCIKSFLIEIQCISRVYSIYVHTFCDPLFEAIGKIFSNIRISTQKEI
The assay is described as follows: co-IP; anti-Cav-1 antibody (or normal rabbit IgG) on Protein G magnetic beads, 300 ug sample protein per group, overnight at 4 C, washed with PBS-T (0.5% Tween-20, pH 7.4), western blot; brain endothelial cells with or without OGD/R and Cav-1 siRNA. A general note: Immunoblotting shows a protein as a band on a membrane.

B1: Occludin (protein, UniProt Q61146 1-521)
chain: MSVRPFESPPPYRPDEFKPNHYAPSNDMYGGEMHVRPMLSQPAYSFYPEDEILHFYKWTSPPGVIRILSMLIIVMCIAIFACVASTLAWDRGYGTGLFGGSLNYPYSGFGYGGGYGGGYGGYGYGYGGYTDPRAAKGFLLAMAAFCFIASLVIFVTSVIRSGMSRTRRYYLIVIIVSAILGIMVFIATIVYIMGVNPTAQASGSMYGSQIYMICNQFYTPGGTGLYVDQYLYHYCVVDPQEAIAIVLGFMIIVAFALIIFFAVKTRRKMDRYDKSNILWDKEHIYDEQPPNVEEWVKNVSAGTQDMPPPPSDYAERVDSPMAYSSNGKVNGKRSYPESFYKSTPLVPEVAQEIPLTLSVDDFRQPRYSSNGNLETPSKRAPTKGKAGKGKRTDPDHYETDYTTGGESCEELEEDWVREYPPITSDQQRQLYKRNFDAGLQEYKSLQAELDDVNKELSRLDKELDDYREESEEYMAAADEYNRLKQVKGSADYKSKRNYCKQLKSKLSHIKRMVGDYDRRKP
Consider B1, for which the binding entry was “binds”.
